Measurements reported in PubChem BioAssay AID602196 (INSERM, 2012)
Test: 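Genes whose knock-down alters cisplatin killing of lung cancer cells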. System: human A549 lung cancer cells. Reagents: siRNA pair against human genes. Duration: 48 h transfection before cisplatin; time from cisplatin to read-out not stated. Challenge: cisplatin at a dose killing half of control-siRNA cells; exact dose and duration not given. Detection: 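Shift in cisplatin death relative to control siRNA, from -50 (all cells die) to +50 (no cells die); siRNAs harmful on their own scored 0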. Scale: two-siRNA summed score (-2 to +2): higher = both siRNAs protect from cisplatin killing; -2 means both sensitise. Rule for the call: 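Each siRNA scores 0 if harmful alone by LDH or WST-1, otherwise +1 if it reduces and -1 if it increases cisplatin killing; a gene is active when both siRNAs agree (sum +2 or -2)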. Meaning of the calls: active = both siRNAs shift cisplatin killing the same way; inactive = no consistent shift, or siRNA harmful alone.
The deposit covers about 23,000 reagents; below is a part drawn at random. Over the whole deposit, 455 (2%) are marked active. 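Active includes both protection and sensitisation; some change values fall well beyond the stated -50 to +50 range.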 Not all columns of the deposit are shown. Not stated in the record: the amount of reagent.

Silencing of CBFA2T3 came out at: two-siRNA summed score (-2 to +2) = 0; inactive.
For LOC391362, the entry reads two-siRNA summed score (-2 to +2) = 1; inactive.
Silencing of MARCHF10 gave: two-siRNA summed score (-2 to +2) = 1; inactive.
After knock-down of LOC126755 the results were two-siRNA summed score (-2 to +2) = 0; inactive.
With knock-down of OR4D11, the screen gave two-siRNA summed score (-2 to +2) = 0; inactive.
TRIM15 scored two-siRNA summed score (-2 to +2) = -1; inactive.
For SNCAIP the deposit lists two-siRNA summed score (-2 to +2) = 1; inactive.
Depletion of LIMD1 resulted in: two-siRNA summed score (-2 to +2) = 1; inactive.
CREB3L4 scored two-siRNA summed score (-2 to +2) = 0; inactive.
With knock-down of UCMA the results were two-siRNA summed score (-2 to +2) = 0; inactive.
Depletion of MMP8 came out at: two-siRNA summed score (-2 to +2) = -1; inactive.
Against SLC9D1, the values are two-siRNA summed score (-2 to +2) = 0; inactive.

Laid out differently: entries from further up
{"gene knocked down": "LOC126755", "two-siRNA summed score (-2 to +2)": 0, "Call": "inactive"}
{"gene knocked down": "OR4D11", "two-siRNA summed score (-2 to +2)": 0, "Call": "inactive"}
